From patent publication US20050037949A1, “Mannose binding lectin and uses thereof” (priority 2002, published 2005)
These are yes or no findings as the source states them, for the method shown. Some binding calls cover weakened binding; strength is not graded here.

By UniProt entry, the sequences of proteins in these tests, tags left out. Residues count along the entry.
UniProt O00187, residues 16-686: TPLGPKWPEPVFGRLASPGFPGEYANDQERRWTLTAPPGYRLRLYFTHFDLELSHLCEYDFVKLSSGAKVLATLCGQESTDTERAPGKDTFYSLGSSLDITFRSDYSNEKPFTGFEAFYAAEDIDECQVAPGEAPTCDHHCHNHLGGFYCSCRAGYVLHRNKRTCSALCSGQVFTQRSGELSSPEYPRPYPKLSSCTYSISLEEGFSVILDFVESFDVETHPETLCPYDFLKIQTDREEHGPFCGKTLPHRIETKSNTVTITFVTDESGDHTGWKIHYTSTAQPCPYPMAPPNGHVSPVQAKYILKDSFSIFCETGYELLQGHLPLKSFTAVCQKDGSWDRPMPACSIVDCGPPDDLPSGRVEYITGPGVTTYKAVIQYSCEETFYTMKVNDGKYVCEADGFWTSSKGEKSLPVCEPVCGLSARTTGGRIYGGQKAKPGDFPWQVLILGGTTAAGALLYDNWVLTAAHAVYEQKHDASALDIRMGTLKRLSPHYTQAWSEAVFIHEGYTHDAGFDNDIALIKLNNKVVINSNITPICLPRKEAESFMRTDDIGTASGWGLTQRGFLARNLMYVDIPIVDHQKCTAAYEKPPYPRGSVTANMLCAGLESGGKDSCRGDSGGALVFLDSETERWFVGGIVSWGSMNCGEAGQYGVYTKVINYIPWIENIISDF
UniProt P11226, residues 21-248: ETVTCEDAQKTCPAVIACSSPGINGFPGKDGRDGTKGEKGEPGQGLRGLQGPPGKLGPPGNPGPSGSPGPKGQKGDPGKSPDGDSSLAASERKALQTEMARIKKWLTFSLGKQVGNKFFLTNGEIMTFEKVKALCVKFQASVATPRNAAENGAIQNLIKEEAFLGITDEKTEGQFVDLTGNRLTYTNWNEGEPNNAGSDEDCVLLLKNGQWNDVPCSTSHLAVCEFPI

Biological target: MBL associated serine protease 2 (MASP2) (human) (UniProt O00187)
Assay: C4 deposition assay on mannan-coated plates with MBL-deficient human serum (recruitment inferred)

binding | Substance
binds | MASP-depleted MBL fraction 3 (from UniProt P11226 21-248)
binds | MASP-depleted MBL fraction 5 (from UniProt P11226 21-248)
binds | MASP-depleted MBL pool of fractions 3-7 (from UniProt P11226 21-248)
binds | MASP-depleted MBL pool of fractions 8-9 (from UniProt P11226 21-248)
